# Experimental data: ChEMBL document CHEMBL4837246 (J Med Chem, 2021)
# Tests used:
# in vitro = conditions: human, Caco-2
# physchem [1] = conditions: buffer, pH 6.5
# physchem [2] = conditions: buffer, pH 7.5
compound,measurement,setting,value
FC(F)c1cncc(-c2ccc3ncc4nnc(C5=CCCOCC5)n4c3c2)c1,"Papp A→B at 2 h, 2 µM",in vitro,30.5 ×10⁻⁶ cm/s
same,solubility at 24 h,physchem [1],99 µg/mL
same,chromatographic logD,physchem [2],1.8
